Assay results: the supplement of paper PMC8728848
The other results are listed elsewhere or left out.

Experiments:
Assay in all cases: glycan array binding signal (z-score within array); higher = stronger binding
Conditions in all cases: glycan notation: IUPAC condensed, linker removed
[1] = molecular target: GalNAc3S(b1-4)[Fuc(a1-3)]GlcNAc
Procedure, shortened: (§1)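 Columns mapping to the same glycan were averaged after glycan names were converted to IUPAC-condensed notation. The data come from 3228 arrays in the Consortium for Functional Glycomics database, limited to those with an available protein sequence. Binding is reported as a within-array Z-score averaged across arrays of one protein sequence and across linkers.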

GalNAc4S6S(b1-4)GlcNAc = molecular target: GalNAc4S6S(b1-4)GlcNAc
Procedure, shortened: as §1

GalNAc6S(b1-4)GlcNAc = molecular target: GalNAc6S(b1-4)GlcNAc
Procedure, shortened: as §1

Glc(a1-4)Glc = molecular target: Glc(a1-4)Glc
Procedure, shortened: as §1

[2] = molecular target: Glc(a1-4)Glc(a1-4)Glc(a1-4)Glc
Procedure, shortened: as §1

Glc(a1-6)Glc(a1-6)Glc = molecular target: Glc(a1-6)Glc(a1-6)Glc
Procedure, shortened: as §1

[3] = molecular target: Glc(a1-6)Glc(a1-6)Glc(a1-6)Glc
Procedure, shortened: as §1

Glc(b1-4)Glc = molecular target: Glc(b1-4)Glc
Procedure, shortened: as §1

Glc(b1-6)Glc = molecular target: Glc(b1-6)Glc
Procedure, shortened: as §1

GlcA(b1-3)Gal = molecular target: GlcA(b1-3)Gal
Procedure, shortened: as §1

GlcA(b1-3)GlcNAc = molecular target: GlcA(b1-3)GlcNAc
Procedure, shortened: as §1

GlcA(b1-6)Gal = molecular target: GlcA(b1-6)Gal
Procedure, shortened: as §1

[4] = molecular target: GlcA3S(b1-3)Gal(b1-4)GlcNAc(b1-2)Man
Procedure, shortened: as §1

[5] = molecular target: GlcA3S(b1-3)Gal(b1-4)GlcNAc(b1-3)Gal(b1-4)Glc
Procedure, shortened: as §1

[6] = molecular target: GlcNAc(a1-3)Gal(b1-4)GlcNAc
Procedure, shortened: as §1

[7] = molecular target: GlcNAc(a1-4)Gal(b1-3)GlcNAc
Procedure, shortened: as §1

[8] = molecular target: GlcNAc(a1-4)Gal(b1-4)GalNAc
Procedure, shortened: as §1

[9] = molecular target: GlcNAc(a1-4)Gal(b1-4)GlcNAc
Procedure, shortened: as §1

[10] = molecular target: GlcNAc(a1-4)Gal(b1-4)GlcNAc(b1-3)Gal(b1-4)Glc
Procedure, shortened: as §1

[11] = molecular target: GlcNAc(a1-4)Gal(b1-4)GlcNAc(b1-3)Gal(b1-4)GlcNAc
Procedure, shortened: as §1

[12] = molecular target: GlcNAc(a1-4)Gal(b1-4)GlcNAc(b1-3)Gal(b1-4)GlcNAc(b1-3)Gal(b1-4)GlcNAc
Procedure, shortened: as §1

[13] = molecular target: GlcNAc(a1-4)Gal(b1-4)GlcNAc(b1-3)Gal(b1-4)[Fuc(a1-3)]GlcNAc(b1-3)Gal(b1-4)[Fuc(a1-3)]GlcNAc
Procedure, shortened: as §1

[14] = molecular target: GlcNAc(a1-6)Gal(b1-4)GlcNAc
Procedure, shortened: as §1

[15] = molecular target: GlcNAc(b1-2)Gal(b1-3)GalNAc
Procedure, shortened: as §1

[16] = molecular target: GlcNAc(b1-2)Man(a1-3)[GlcNAc(b1-2)Man(a1-6)]Man(b1-4)GlcNAc(b1-4)GlcNAc
Procedure, shortened: as §1

[17] = molecular target: GlcNAc(b1-2)Man(a1-3)[GlcNAc(b1-2)Man(a1-6)]Man(b1-4)GlcNAc(b1-4)[Fuc(a1-6)]GlcNAc
Procedure, shortened: as §1

[18] = molecular target: GlcNAc(b1-2)Man(a1-3)[GlcNAc(b1-4)][GlcNAc(b1-2)Man(a1-6)]Man(b1-4)GlcNAc(b1-4)GlcNAc
Procedure, shortened: as §1

[19] = molecular target: GlcNAc(b1-2)Man(a1-3)[GlcNAc(b1-4)][GlcNAc(b1-2)Man(a1-6)]Man(b1-4)GlcNAc(b1-4)[Fuc(a1-6)]GlcNAc
Procedure, shortened: as §1

[20] = molecular target: GlcNAc(b1-2)[GlcNAc(b1-4)]Man(a1-3)[GlcNAc(b1-2)Man(a1-6)]Man(b1-4)GlcNAc(b1-4)GlcNAc
Procedure, shortened: as §1

[21] = molecular target: GlcNAc(b1-2)[GlcNAc(b1-4)]Man(a1-3)[GlcNAc(b1-4)][GlcNAc(b1-2)Man(a1-6)]Man(b1-4)GlcNAc(b1-4)GlcNAc
Procedure, shortened: as §1

[22] = molecular target: GlcNAc(b1-2)[GlcNAc(b1-4)]Man(a1-3)[GlcNAc(b1-4)][GlcNAc(b1-2)[GlcNAc(b1-6)]Man(a1-6)]Man(b1-4)GlcNAc(b1-4)GlcNAc
Procedure, shortened: as §1

[23] = molecular target: GlcNAc(b1-2)[GlcNAc(b1-4)]Man(a1-3)[GlcNAc(b1-4)][GlcNAc(b1-2)[GlcNAc(b1-6)]Man(a1-6)]Man(b1-4)GlcNAc(b1-4)[Fuc(a1-6)]GlcNAc
Procedure, shortened: as §1

[24] = molecular target: GlcNAc(b1-2)[GlcNAc(b1-6)]Man(a1-6)[GlcNAc(b1-2)Man(a1-3)]Man(b1-4)GlcNAc(b1-4)GlcNAc
Procedure, shortened: as §1

[25] = molecular target: GlcNAc(b1-2)[GlcNAc(b1-6)]Man(a1-6)[GlcNAc(b1-2)Man(a1-3)]Man(b1-4)GlcNAc(b1-4)[Fuc(a1-6)]GlcNAc
Procedure, shortened: as §1

[26] = molecular target: GlcNAc(b1-2)[GlcNAc(b1-6)]Man(a1-6)[GlcNAc(b1-4)][GlcNAc(b1-2)Man(a1-3)]Man(b1-4)GlcNAc(b1-4)GlcNAc
Procedure, shortened: as §1

GlcNAc(b1-3)Fuc = molecular target: GlcNAc(b1-3)Fuc
Procedure, shortened: as §1

GlcNAc(b1-3)Gal = molecular target: GlcNAc(b1-3)Gal
Procedure, shortened: as §1

[27] = molecular target: GlcNAc(b1-3)Gal(b1-3)GalNAc
Procedure, shortened: as §1

B1: Sp8391B-bot-388-20-388 (Bacteroides ovatus) (protein)
chain: GCQNNDENEQHYDNKLFISASNFTKEILFKAGDTNVETGLSVAIAKPEEHDIKVTMSPAPELLSTYKLAYYDETAVLLSEEHYSMPETSTTIKSGSIVSPELPIEFINTGELDIKTTYVLPVTIKSVEGIGVLQSAKTYYYVFRGASLINVVCNISRNRAYPDFKNDSKFNNLTENTMEILFKANSFPNTLNTLMGIESNYLLRIGDATIPNNQLQVATSVNNCTSADLQLESGKWYHVAVAFNKGNVKVYINGVEKLSGSTGKSSVSLGAKHTNEEDGSRCFWVGYSYKDDRYFDGVVSEVRIWNRALTAEEIQATNHFYTIEPESEGLIAYWKFDEGSGTVAKDYSVSGYDLTIEKEPKWESVSLPQ
glycan array binding signal (z-score) [1]: -0.266 | glycan array binding signal (z-score) (GalNAc4S6S(b1-4)GlcNAc): -0.043 | glycan array binding signal (z-score) (GalNAc6S(b1-4)GlcNAc): -1.27 | glycan array binding signal (z-score) (Glc(a1-4)Glc): 0.181 | glycan array binding signal (z-score) [2]: -0.549 | glycan array binding signal (z-score) (Glc(a1-6)Glc(a1-6)Glc): -0.584 | glycan array binding signal (z-score) [3]: -0.611 | glycan array binding signal (z-score) (Glc(b1-4)Glc): -0.009 | glycan array binding signal (z-score) (Glc(b1-6)Glc): 0.413 | glycan array binding signal (z-score) (GlcA(b1-3)Gal): -0.821 | glycan array binding signal (z-score) (GlcA(b1-3)GlcNAc): -0.475 | glycan array binding signal (z-score) (GlcA(b1-6)Gal): 2.12 | glycan array binding signal (z-score) [4]: -0.231 | glycan array binding signal (z-score) [5]: -1.22 | glycan array binding signal (z-score) [6]: -0.591 | glycan array binding signal (z-score) [7]: -0.29 | glycan array binding signal (z-score) [8]: 0.025 | glycan array binding signal (z-score) [9]: -0.144 | glycan array binding signal (z-score) [10]: -0.143 | glycan array binding signal (z-score) [11]: -0.925 | glycan array binding signal (z-score) [12]: -0.76 | glycan array binding signal (z-score) [13]: 0.692 | glycan array binding signal (z-score) [14]: -0.266 | glycan array binding signal (z-score) [15]: -0.108 | glycan array binding signal (z-score) [16]: -0.408 | glycan array binding signal (z-score) [17]: 0.213 | glycan array binding signal (z-score) [18]: -0.101 | glycan array binding signal (z-score) [19]: 0.694 | glycan array binding signal (z-score) [20]: -0.957 | glycan array binding signal (z-score) [21]: -0.344 | glycan array binding signal (z-score) [22]: -0.672 | glycan array binding signal (z-score) [23]: -0.492 | glycan array binding signal (z-score) [24]: -0.225 | glycan array binding signal (z-score) [25]: 0.418 | glycan array binding signal (z-score) [26]: -0.107 | glycan array binding signal (z-score) (GlcNAc(b1-3)Fuc): -0.326 | glycan array binding signal (z-score) (GlcNAc(b1-3)Gal): -0.232 | glycan array binding signal (z-score) [27]: 0.085
